This note sets out measurements from PubChem BioAssay AID248 (DTP/NCI, 2004).

This test relates to L1210 leukemia ip in BDF1 mice, survival T/C. The test can be described thus: NCI In Vivo Anticancer Drug Screen. Data for tumor model L1210 Leukemia (intraperitoneal) in B6D2F1 (BDF1) mice. The following applies: T/C endpoint: mean survival time, higher T/C = longer survival.

The list does not hold the whole screen: it is rich in T/C values a quarter to a half above the control, in often repeated tests (any T/C) and in doses without a T/C. Further doses and runs are listed elsewhere. T/C gives the treated animals as a percentage of the vehicle group. Some entries give survivors of the animals treated and no T/C: the source holds a T/C of zero for them, seemingly a mark for toxic or unscored doses. Some doses without a T/C left all or most animals alive at the check, yet need not have been tolerated: survival well below the control is almost never listed, so the zero probably covers shortened survival too. Survivors were counted at the toxicity check, usually on the fifth day, unless a day is given; later deaths do not show. Schedule codes are those of the source, taken here to give the interval after Q, in days (D) or hours (H), and the number of doses after X. Some schedules carry Z or #; the key to these is not given. For survival time, this PubChem deposit counts one and a half times the control or more as active, and values a quarter to a half above the control carry no call in these data; other NCI protocols may use other cut-offs. Marks such as (2×) stand for listed records that agree. Some doses were run more than once; the results are listed from low to high. Some T/C values carry the count of animals alive at the toxicity check (mostly the fifth day); without a count, all were alive then.

With `NC(Cc1ccc(OC2CCCC2)c(N(CCCl)CCCl)c1)C(=O)O` (stereo not given), the T/C (dose: 1.2 mg/kg/injection, schedule: Q01DX009 (ip), vehicle: carboxymethylcellulose (CMC)) is 133 % of control; the T/C (dose: 2.5 mg/kg/injection, schedule: Q01DX009 (ip), vehicle: carboxymethylcellulose (CMC)) is 133 % of control; the T/C (dose: 5.0 mg/kg/injection, schedule: Q01DX009 (ip), vehicle: carboxymethylcellulose (CMC)) was 143 % of control; the T/C (dose: 5.7 mg/kg/injection, schedule: Q01DX009 (ip), vehicle: carboxymethylcellulose (CMC)) is 144 % of control; the T/C (dose: 13.0 mg/kg/injection, schedule: Q01DX009 (ip), vehicle: saline) is 128 % of control; the T/C (dose: 15.0 mg/kg/injection, schedule: Q01DX001 (ip), vehicle: carboxymethylcellulose (CMC)) was 125 [4 of 6 alive] and 147 % of control. Moreover, the T/C (dose: 20.0 mg/kg/injection, schedule: Q01DX001 (ip), vehicle: carboxymethylcellulose (CMC)) is 128 % of control and the T/C (dose: 30.0 mg/kg/injection, schedule: Q01DX001 (ip), vehicle: carboxymethylcellulose (CMC)) is 125 % of control. Besides, the survivor count is, setting by setting: (dose: 20.0 mg/kg/injection, schedule: Q01DX009 (ip), vehicle: carboxymethylcellulose (CMC)) 2 of 6; (dose: 30.0 mg/kg/injection, schedule: Q01DX009 (ip), vehicle: carboxymethylcellulose (CMC)) 0 of 6; (dose: 60.0 mg/kg/injection, schedule: Q01DX001 (ip), vehicle: carboxymethylcellulose (CMC)) 1 of 6; (dose: 75.0 mg/kg/injection, schedule: Q01DX001 (ip), vehicle: carboxymethylcellulose (CMC)) 0 of 6; (dose: 150.0 mg/kg/injection, schedule: Q01DX001 (ip), vehicle: carboxymethylcellulose (CMC)) 0 of 6; (dose: 300.0 mg/kg/injection, schedule: Q01DX001 (ip), vehicle: carboxymethylcellulose (CMC)) 0 of 6.

With `CC(=O)Nc1cc(C(=O)Nc2ccc(C3=NCCN3)cc2)ccc1C(=O)Nc1ccc(C2=NCCN2)cc1`, the survivor count is on record as 0 of 6 (dose: 30.0 mg/kg/injection, schedule: Q01DX Z (ip), vehicle: saline); 0 of 6 (dose: 60.0 mg/kg/injection, schedule: Q01DX Z (ip), vehicle: saline); 0 of 6 (dose: 120.0 mg/kg/injection, schedule: Q01DX Z (ip), vehicle: saline).

Take `CNCC(=O)NC(CO)C(=O)NC(CO)C(=O)NC1C(C(N)=O)OC(n2ccc(N)nc2=O)C(O)C1O` (stereo not given): the survivor count (dose: 50.0 mg/kg/injection, schedule: Q01DX005 (ip), vehicle: saline) is recorded as 0 of 3; the survivor count (dose: 100.0 mg/kg/injection, schedule: Q01DX005 (ip), vehicle: saline) is given as 0 of 3; the survivor count (dose: 200.0 mg/kg/injection, schedule: Q01DX005 (ip), vehicle: saline) was 0 of 3.

`CC1CCC2C(C)C3C(CC4C5CC=C6CC(OC7OC(COC8OC(CO)C(OC9OC(C)C(O)C(O)C9O)C(O)C8O)C(O)C(O)C7O)CCC6(C)C5CCC43C)N2C1` (stereo not given): under “dose: 200.0 mg/kg/injection, schedule: Q04DX002 (ip), vehicle: Klucel (hydroxypropylcellulose) (HPC)”, the survivor count is reported as 3 of 3.

With `Cc1cc(N(CCCl)CCCl)ccc1C=Nc1ccccc1-c1ccccc1`, the T/C (dose: 20.0 mg/kg/injection, schedule: Q01DX Z (ip), vehicle: carboxymethylcellulose (CMC)) was 126 % of control.

Regarding `Cc1ccc(C)c(C(=O)CCCCl)c1`, the survivor count by setting is: (dose: 200.0 mg/kg/injection, schedule: Q04DX003 (ip), vehicle: saline with Tween-80) 4 of 6; (dose: 400.0 mg/kg/injection, schedule: Q04DX003 (ip), vehicle: saline with Tween-80) 0 of 6.

On to `CCC(Br)(CC)C(=O)c1ccc(OCC(=O)O)c(Cl)c1Cl`, for which the survivor count (dose: 400.0 mg/kg/injection, schedule: Q01DX001 (ip), vehicle: saline) is on record as 0 of 4.

Consider `C1=CN2CC(c3ccccc3)=NNC2c2ccccc21` (stereo not given), for which the survivor count is given as 2 of 6 (dose: 200.0 mg/kg/injection, schedule: Q04DX003 (ip), vehicle: alcohol); 0 of 6 (dose: 400.0 mg/kg/injection, schedule: Q04DX003 (ip), vehicle: alcohol); 3 of 6 (dose: 400.0 mg/kg/injection, schedule: Q04DX003 (ip), vehicle: saline).

As to `CCC(/C=C1\Oc2ccc(-c3ccccc3)cc2N1CC)=C\c1oc2ccc(-c3ccccc3)cc2[n+]1CC`, the T/C is 138 % of control (dose: 1.2 mg/kg/injection, schedule: Q01DX009 (ip), vehicle: other); 132 % of control (dose: 1.8 mg/kg/injection, schedule: Q01DX009 (ip), vehicle: other); 126 % of control (dose: 4.0 mg/kg/injection, schedule: Q01DX009 (ip), vehicle: other); 125 % of control (dose: 9.5 mg/kg/injection, schedule: Q01DX001 (ip), vehicle: other). The survivor count (dose: 38.0 mg/kg/injection, schedule: Q01DX001 (ip), vehicle: other) is reported as 0 of 6.

On to `Cc1cccc(NC(=O)c2c(Br)c(Br)c(Br)c(Br)c2C(=O)O)c1C`, for which the survivor count (dose: 400.0 mg/kg/injection, schedule: Q01DX009 (ip), vehicle: Klucel (hydroxypropylcellulose) (HPC)) is 1 of 6.

Consider `O=C(CCN1CC1)Nc1ccc(NC(=O)CCN2CC2)cc1`, for which the T/C runs as follows: (dose: 4.4 mg/kg/injection, schedule: Q01DX009 (ip), vehicle: Klucel (hydroxypropylcellulose) (HPC)) 144 % of control; (dose: 10.0 mg/kg/injection, schedule: Q01DX009 (ip), vehicle: Klucel (hydroxypropylcellulose) (HPC)) 140 % of control (2×); (dose: 15.0 mg/kg/injection, schedule: Q01DX009 (ip), vehicle: Klucel (hydroxypropylcellulose) (HPC)) 127 % of control; (dose: 20.0 mg/kg/injection, schedule: Q04DX003 (ip), vehicle: Klucel (hydroxypropylcellulose) (HPC)) 136 and 148 % of control. Besides, the survivor count (dose: 40.0 mg/kg/injection, schedule: Q01DX009 (ip), vehicle: Klucel (hydroxypropylcellulose) (HPC)) was 1 of 6; the survivor count (dose: 80.0 mg/kg/injection, schedule: Q04DX003 (ip), vehicle: Klucel (hydroxypropylcellulose) (HPC)) is listed as 6 of 6; the survivor count (dose: 100.0 mg/kg/injection, schedule: Q04DX003 (ip), vehicle: Klucel (hydroxypropylcellulose) (HPC)) was 5 of 6; the survivor count (dose: 200.0 mg/kg/injection, schedule: Q04DX003 (ip), vehicle: Klucel (hydroxypropylcellulose) (HPC)) is given as 5 of 6; the survivor count (dose: 400.0 mg/kg/injection, schedule: Q04DX003 (ip), vehicle: Klucel (hydroxypropylcellulose) (HPC)) is 5 of 6.

As for `CC(=O)NC1CCCCCC1I` (stereo not given), the survivor count (dose: 75.0 mg/kg/injection, schedule: Q01DX001 (ip), vehicle: acetone) is 0 of 6; the survivor count (dose: 150.0 mg/kg/injection, schedule: Q01DX001 (ip), vehicle: acetone) is recorded as 0 of 6; the survivor count (dose: 300.0 mg/kg/injection, schedule: Q01DX001 (ip), vehicle: acetone) is recorded as 0 of 6.

Turning to `COc1ccc(C(O)C(C)N)cc1` (stereo not given), the survivor count (dose: 300.0 mg/kg/injection, schedule: Q01DX001 (ip), vehicle: saline) is recorded as 3 of 6.

In the case of `N\C([S-])=N/N=C\C(=N/N=C(\N)[S-])C(O)C(O)C(O)CO.[Pt+2]` (stereo not given), the survivor count (dose: 100.0 mg/kg/injection, schedule: Q01DX009 (ip), vehicle: saline) is listed as 6 of 6.

Take `NCC(=O)NC(CCCC(N)C(=O)OCc1ccccc1)C(=O)O` (stereo not given): the survivor count reads like this: (dose: 75.0 mg/kg/injection, schedule: Q04DX003 (ip), vehicle: Klucel (hydroxypropylcellulose) (HPC)) 3 of 6; (dose: 150.0 mg/kg/injection, schedule: Q04DX003 (ip), vehicle: Klucel (hydroxypropylcellulose) (HPC)) 1 of 6; (dose: 300.0 mg/kg/injection, schedule: Q04DX003 (ip), vehicle: Klucel (hydroxypropylcellulose) (HPC)) 0 of 6.

With `Nc1ncnc2c1ccn2C1CCC(CO)C1` (stereo not given), the survivor count (dose: 400.0 mg/kg/injection, schedule: Q01DX001 (ip), vehicle: other) is given as 0 of 4.

As to `CS(=O)(=O)c1nc(Cl)nc(C(Cl)(Cl)Cl)c1Cl`, the survivor count is 0 of 6 (dose: 100.0 mg/kg/injection, schedule: Q01DX009 (ip), vehicle: saline with Tween-80); 0 of 6 (dose: 200.0 mg/kg/injection, schedule: Q01DX009 (ip), vehicle: saline with Tween-80); 0 of 6 (dose: 400.0 mg/kg/injection, schedule: Q01DX009 (ip), vehicle: saline with Tween-80).
